Drawing on paper PMC9371855, this text covers binding for three molecules.

Sequences of proteins named here, by UniProt entry; tags and fusion partners are left off.
UniProt Q9Y572: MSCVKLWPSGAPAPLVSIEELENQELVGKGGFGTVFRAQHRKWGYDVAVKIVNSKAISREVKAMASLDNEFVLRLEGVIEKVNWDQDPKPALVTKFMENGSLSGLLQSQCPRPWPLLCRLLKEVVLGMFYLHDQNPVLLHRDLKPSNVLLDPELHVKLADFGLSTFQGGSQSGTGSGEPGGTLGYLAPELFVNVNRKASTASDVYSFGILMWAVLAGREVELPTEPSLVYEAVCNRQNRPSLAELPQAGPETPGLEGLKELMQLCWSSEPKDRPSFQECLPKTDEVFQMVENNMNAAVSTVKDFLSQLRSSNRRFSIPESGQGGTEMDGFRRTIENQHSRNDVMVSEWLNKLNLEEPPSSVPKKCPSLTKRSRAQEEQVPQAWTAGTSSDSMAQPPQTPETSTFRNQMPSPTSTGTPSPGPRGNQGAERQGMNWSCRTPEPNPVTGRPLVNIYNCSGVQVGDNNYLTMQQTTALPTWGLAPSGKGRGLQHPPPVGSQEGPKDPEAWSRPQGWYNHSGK

These are yes or no findings as the source states them, for the method shown. Binding seen in cells or lysates may run through a third protein. Some results given as binding are weak or reduced against the parent protein; the word gives no strength.

Assay in all cases: co-IP; PC3 cells, with or without IDOAMP for 24 h, lysed in RIPA buffer; endogenous proteins precipitated with anti-Aurora kinase A or anti-RIPK1 antibody (IgG as control) and protein-A/G-agarose beads at 4°C; western blot
On the technique in general: Immunoblotting shows a protein as a band on a membrane.

The target of assay [1] is T1, Aurora kinase A (human (endogenous in PC3)) (UniProt O14965).
T1 sequence: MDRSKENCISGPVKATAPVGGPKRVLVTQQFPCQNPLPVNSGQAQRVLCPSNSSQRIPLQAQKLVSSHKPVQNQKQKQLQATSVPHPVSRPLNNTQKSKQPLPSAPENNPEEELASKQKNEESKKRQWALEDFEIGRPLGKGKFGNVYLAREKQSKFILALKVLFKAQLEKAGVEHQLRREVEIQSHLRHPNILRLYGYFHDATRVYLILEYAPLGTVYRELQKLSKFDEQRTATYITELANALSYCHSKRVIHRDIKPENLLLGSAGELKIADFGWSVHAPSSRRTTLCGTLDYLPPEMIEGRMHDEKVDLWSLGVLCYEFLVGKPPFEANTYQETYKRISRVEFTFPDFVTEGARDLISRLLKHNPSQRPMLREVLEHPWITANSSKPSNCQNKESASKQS

Assay [2] concerns the target receptor-interacting serine/threonine kinase 1 (human (endogenous in PC3)) (UniProt Q13546).
Assay [3] concerns the target T2, receptor-interacting serine/threonine kinase 1 (human (endogenous in PC3)), Q13546.
T2 chain: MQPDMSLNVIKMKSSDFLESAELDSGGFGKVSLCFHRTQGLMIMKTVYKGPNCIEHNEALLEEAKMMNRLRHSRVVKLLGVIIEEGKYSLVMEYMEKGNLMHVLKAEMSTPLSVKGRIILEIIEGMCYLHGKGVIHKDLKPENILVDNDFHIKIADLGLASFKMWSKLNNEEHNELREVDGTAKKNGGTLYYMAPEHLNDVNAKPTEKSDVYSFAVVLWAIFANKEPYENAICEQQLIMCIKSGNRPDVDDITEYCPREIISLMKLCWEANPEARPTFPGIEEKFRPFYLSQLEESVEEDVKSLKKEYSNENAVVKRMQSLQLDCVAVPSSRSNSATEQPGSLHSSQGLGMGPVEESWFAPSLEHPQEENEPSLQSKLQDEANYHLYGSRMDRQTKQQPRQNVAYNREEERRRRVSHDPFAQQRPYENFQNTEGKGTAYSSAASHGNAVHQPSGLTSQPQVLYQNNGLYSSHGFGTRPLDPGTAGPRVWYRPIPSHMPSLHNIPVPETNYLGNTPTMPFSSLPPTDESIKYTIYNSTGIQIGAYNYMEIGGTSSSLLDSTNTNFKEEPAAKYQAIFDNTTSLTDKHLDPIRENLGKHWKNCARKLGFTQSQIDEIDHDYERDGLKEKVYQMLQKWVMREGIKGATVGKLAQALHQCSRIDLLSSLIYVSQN
To be noted: remark: other sources report otherwise.

“receptor-interacting serine/threonine kinase 1 (from UniProt Q13546 1-671) (enzyme)”: in assay [1], the binding result is listed as “binds”.

For “receptor-interacting serine/threonine kinase 3 (from UniProt Q9Y572 1-518) (enzyme)”, the binding entry in assay [1] and in assay [2] was “binds” each time.

B1: mixed lineage kinase domain-like, Q8NB16 1-471 (protein)
chain: MENLKHIITLGQVIHKRCEEMKYCKKQCRRLGHRVLGLIKPLEMLQDQGKRSVPSEKLTTAMNRFKAALEEANGEIEKFSNRSNICRFLTASQDKILFKDVNRKLSDVWKELSLLLQVEQRMPVSPISQGASWAQEDQQDADEDRRAFQMLRRDNEKIEASLRRLEINMKEIKETLRQYLPPKCMQEIPQEQIKEIKKEQLSGSPWILLRENEVSTLYKGEYHRAPVAIKVFKKLQAGSIAIVRQTFNKEIKTMKKFESPNILRIFGICIDETVTPPQFSIVMEYCELGTLRELLDREKDLTLGKRMVLVLGAARGLYRLHHSEAPELHGKIRSSNFLVTQGYQVKLAGFELRKTQTSMSLGTTREKTDRVKSTAYLSPQELEDVFYQYDVKSEIYSFGIVLWEIATGDIPFQGCNSEKIRKLVAVKRQQEPLGEDCPSELREIIDECRAHDPSVRPSVDEILKKLSTFSK
Consider B1, for which, in assay [3], the binding result was “binds”.
